Test results from the supplement of paper PMC6411743.
± gives the standard deviation of the averaged measurements. This is one part of the list.

Protein sequences, listed by entry. Tags and fused reporters are not part of them. Lines headed by an entry give the natural chain unless they say otherwise; changes in a name come on top.
UniProt Q14566: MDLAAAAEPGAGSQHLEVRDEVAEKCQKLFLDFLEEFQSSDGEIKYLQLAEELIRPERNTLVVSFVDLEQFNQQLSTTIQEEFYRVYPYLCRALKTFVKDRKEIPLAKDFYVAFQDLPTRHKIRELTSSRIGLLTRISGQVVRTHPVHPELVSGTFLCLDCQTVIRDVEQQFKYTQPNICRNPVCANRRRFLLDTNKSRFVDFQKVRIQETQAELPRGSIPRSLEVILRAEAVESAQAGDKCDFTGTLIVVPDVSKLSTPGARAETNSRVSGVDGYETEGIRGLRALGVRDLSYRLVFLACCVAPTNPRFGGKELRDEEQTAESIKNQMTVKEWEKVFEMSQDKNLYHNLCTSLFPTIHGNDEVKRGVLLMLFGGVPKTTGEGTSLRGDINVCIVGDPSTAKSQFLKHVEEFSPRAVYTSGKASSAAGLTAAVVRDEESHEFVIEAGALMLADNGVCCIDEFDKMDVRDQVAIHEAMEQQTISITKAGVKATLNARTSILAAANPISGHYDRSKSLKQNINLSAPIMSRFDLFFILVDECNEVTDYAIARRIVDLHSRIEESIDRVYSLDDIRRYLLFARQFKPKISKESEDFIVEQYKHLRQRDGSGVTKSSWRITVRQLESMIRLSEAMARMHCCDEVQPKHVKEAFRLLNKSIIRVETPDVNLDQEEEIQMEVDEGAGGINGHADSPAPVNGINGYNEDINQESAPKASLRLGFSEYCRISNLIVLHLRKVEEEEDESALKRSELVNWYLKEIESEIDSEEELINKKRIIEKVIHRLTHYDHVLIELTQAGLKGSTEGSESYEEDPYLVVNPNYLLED
UniProt Q13573: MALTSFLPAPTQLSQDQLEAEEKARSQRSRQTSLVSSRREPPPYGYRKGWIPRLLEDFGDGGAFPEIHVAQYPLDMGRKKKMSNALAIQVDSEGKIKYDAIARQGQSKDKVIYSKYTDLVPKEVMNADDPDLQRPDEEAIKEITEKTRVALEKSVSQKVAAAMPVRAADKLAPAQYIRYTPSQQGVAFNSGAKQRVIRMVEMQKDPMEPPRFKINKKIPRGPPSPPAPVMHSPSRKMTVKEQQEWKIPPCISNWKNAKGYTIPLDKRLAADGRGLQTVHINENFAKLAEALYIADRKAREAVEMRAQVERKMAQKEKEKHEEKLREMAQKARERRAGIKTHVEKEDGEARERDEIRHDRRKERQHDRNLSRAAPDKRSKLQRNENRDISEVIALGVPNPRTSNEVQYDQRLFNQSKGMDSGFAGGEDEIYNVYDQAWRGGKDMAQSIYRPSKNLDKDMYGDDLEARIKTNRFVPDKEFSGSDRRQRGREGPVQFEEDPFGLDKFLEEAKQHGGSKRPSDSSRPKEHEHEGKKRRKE
UniProt Q14191, whole entry: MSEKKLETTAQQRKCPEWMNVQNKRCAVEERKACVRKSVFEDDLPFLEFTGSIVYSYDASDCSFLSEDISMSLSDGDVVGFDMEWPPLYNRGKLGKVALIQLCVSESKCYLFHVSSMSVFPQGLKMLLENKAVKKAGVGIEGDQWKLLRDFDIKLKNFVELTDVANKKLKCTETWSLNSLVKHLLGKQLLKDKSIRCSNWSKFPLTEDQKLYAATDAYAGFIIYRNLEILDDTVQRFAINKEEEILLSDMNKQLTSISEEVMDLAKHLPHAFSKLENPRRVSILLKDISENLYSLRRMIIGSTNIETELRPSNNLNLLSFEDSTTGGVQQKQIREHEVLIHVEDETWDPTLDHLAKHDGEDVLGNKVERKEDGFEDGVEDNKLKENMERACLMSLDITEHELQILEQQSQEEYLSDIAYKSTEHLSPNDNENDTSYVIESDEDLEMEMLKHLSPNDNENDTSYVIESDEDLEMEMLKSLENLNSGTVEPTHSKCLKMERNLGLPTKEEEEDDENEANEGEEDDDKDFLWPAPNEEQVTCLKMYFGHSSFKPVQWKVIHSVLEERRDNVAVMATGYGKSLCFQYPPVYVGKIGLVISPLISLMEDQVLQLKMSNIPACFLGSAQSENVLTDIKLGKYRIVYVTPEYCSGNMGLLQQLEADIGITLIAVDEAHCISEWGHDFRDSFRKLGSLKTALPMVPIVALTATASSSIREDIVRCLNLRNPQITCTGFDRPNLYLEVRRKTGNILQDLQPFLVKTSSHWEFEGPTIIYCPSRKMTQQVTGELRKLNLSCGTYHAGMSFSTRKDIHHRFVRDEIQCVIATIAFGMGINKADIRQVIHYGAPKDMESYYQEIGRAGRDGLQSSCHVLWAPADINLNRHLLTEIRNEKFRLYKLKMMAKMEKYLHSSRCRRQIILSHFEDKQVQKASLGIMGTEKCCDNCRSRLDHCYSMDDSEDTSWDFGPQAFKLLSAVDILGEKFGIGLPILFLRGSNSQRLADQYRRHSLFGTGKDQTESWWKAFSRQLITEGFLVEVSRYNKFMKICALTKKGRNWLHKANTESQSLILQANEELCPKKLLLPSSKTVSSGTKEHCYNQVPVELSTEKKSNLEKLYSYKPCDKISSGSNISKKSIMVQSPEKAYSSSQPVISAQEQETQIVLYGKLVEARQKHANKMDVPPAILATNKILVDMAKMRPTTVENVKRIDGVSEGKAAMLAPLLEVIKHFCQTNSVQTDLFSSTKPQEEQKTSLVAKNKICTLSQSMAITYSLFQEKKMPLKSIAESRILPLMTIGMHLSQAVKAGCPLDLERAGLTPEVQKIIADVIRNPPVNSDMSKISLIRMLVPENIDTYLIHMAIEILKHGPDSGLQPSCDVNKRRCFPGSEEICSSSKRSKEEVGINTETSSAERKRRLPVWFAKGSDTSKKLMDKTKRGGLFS
UniProt Q12972: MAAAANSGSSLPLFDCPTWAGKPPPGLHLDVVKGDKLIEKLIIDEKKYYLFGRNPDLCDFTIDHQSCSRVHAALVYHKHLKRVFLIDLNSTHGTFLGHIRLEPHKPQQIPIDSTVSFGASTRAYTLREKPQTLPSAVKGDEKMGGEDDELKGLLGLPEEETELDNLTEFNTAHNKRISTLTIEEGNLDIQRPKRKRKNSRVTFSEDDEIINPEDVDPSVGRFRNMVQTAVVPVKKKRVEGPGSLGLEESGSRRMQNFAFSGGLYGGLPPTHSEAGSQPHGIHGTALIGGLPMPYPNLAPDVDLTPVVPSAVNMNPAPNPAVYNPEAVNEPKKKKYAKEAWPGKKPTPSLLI
UniProt Q14005: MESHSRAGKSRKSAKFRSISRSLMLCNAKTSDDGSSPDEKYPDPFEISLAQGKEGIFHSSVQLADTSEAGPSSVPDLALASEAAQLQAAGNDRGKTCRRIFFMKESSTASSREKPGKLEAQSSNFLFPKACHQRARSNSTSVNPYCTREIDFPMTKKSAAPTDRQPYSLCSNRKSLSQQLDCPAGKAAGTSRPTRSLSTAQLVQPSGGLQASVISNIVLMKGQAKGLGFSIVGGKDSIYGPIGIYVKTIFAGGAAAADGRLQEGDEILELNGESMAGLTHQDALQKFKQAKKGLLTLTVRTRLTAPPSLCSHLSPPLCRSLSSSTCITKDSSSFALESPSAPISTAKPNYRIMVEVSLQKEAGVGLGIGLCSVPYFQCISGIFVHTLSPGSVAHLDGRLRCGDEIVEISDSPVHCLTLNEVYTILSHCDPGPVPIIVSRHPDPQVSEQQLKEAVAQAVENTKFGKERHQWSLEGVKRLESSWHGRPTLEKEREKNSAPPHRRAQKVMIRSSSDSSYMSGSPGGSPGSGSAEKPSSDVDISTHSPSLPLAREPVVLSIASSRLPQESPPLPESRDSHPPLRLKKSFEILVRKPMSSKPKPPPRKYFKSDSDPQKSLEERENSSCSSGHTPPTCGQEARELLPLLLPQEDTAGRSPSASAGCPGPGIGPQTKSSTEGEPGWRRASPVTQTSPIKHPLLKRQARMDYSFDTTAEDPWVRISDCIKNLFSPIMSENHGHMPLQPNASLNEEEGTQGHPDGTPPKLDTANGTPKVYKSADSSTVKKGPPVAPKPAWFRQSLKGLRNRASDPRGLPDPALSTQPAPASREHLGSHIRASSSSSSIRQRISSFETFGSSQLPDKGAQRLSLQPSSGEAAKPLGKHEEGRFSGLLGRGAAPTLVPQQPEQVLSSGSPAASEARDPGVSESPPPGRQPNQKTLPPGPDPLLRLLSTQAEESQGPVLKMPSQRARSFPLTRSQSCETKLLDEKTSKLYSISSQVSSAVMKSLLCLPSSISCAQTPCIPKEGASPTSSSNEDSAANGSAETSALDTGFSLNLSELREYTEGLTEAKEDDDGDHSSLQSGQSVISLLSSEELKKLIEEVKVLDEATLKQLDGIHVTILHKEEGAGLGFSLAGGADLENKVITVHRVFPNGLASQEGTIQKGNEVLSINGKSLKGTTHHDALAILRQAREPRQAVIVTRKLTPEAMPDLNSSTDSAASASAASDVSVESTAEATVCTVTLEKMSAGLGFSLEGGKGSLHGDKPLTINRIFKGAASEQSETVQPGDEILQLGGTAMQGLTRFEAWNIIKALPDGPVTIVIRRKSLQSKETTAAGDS
UniProt Q04637, whole entry: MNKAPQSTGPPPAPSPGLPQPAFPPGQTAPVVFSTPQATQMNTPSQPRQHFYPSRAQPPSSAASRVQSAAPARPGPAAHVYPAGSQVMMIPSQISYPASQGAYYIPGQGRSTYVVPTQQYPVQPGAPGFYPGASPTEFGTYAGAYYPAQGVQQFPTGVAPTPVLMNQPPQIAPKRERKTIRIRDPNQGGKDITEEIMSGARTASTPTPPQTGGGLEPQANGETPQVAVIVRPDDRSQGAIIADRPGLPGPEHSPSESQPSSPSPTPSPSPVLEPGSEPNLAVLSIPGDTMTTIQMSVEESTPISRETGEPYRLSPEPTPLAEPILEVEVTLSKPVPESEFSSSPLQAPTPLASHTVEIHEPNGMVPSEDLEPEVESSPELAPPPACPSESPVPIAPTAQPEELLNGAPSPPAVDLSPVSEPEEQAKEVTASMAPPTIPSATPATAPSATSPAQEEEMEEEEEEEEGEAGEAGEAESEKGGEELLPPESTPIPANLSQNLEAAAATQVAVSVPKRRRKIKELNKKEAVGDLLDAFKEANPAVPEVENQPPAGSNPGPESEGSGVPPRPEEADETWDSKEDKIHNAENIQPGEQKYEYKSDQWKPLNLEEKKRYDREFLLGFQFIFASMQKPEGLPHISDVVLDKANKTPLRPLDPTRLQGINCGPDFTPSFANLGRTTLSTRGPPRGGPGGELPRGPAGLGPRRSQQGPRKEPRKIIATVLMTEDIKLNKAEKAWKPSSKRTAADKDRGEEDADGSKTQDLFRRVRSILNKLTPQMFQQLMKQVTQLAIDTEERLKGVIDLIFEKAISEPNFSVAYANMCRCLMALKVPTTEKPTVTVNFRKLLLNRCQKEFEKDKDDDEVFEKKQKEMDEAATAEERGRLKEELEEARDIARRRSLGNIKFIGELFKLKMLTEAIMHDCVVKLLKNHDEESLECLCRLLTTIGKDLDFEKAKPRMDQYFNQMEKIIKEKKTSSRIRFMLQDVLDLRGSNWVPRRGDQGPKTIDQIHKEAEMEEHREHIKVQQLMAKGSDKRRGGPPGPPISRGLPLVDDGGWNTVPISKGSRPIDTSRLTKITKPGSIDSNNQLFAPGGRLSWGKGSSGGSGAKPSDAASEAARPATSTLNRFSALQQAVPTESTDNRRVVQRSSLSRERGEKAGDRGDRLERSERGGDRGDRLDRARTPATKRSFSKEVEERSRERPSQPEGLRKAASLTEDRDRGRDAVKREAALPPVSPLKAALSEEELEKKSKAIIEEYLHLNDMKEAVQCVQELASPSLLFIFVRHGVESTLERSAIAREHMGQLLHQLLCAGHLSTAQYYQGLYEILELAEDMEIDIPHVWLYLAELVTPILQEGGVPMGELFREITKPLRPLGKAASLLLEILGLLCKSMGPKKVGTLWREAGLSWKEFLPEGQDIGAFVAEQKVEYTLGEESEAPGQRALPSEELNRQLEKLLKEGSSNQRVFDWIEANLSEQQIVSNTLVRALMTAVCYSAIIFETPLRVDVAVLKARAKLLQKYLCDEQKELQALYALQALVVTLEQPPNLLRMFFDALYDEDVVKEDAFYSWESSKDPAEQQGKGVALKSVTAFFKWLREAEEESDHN
UniProt Q13283, whole entry, looked up: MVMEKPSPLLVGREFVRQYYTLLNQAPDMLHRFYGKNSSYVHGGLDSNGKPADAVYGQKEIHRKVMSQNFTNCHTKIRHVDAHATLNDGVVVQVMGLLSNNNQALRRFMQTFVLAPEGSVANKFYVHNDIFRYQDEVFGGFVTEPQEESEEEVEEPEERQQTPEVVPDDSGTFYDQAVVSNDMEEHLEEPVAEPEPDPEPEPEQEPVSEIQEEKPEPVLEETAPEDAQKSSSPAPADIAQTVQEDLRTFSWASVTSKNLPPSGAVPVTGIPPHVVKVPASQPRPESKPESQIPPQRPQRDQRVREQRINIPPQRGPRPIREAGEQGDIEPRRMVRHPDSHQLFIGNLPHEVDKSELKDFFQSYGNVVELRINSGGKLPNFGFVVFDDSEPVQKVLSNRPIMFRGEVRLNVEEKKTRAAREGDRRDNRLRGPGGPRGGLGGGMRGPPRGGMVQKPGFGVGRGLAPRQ

Compound: Nc1nc2c(ncn2[C@@H]2O[C@H](COP(=O)(O)OP(=O)(O)OP(=O)(O)O)[C@@H](O)[C@H]2O)c(=O)[nH]1 [guanosine triphosphate]
Test: NP40-soluble protein abundance relative to vehicle (solubility fold change) (ratio); higher = more soluble protein in presence of GTP
How it was run: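 Crude Jurkat lysate, prepared by Dounce homogenisation, was exposed to eight concentrations from 0.1 to 10 mM for 10 min at room temperature and then 3 min at 37 °C. Solubilisation used 0.8% NP40 with benzonase for 60 min at 4 °C, followed by ultracentrifugation and TMT labelling of the supernatant for LC-MS/MS. After vsn normalisation of intensities, each value is the fold change against the detergent-processed vehicle within each replicate, across three independent experiments.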

Target	NP40-soluble protein abundance (concentration: 0.1mM)	NP40-soluble protein abundance (concentration: 0.5mM)	NP40-soluble protein abundance (concentration: 1mM)	NP40-soluble protein abundance (concentration: 2mM)	NP40-soluble protein abundance (concentration: 4mM)	NP40-soluble protein abundance (concentration: 6mM)	NP40-soluble protein abundance (concentration: 8mM)	NP40-soluble protein abundance (concentration: 10mM)
MCM6 (UniProt Q14566)	1.05 ± 0.1	1.08 ± 0.15	0.982 ± 0.11	1.02 ± 0.17	0.99 ± 0.14	1.01 ± 0.16	0.944 ± 0.081	0.921 ± 0.11
RBL2 (UniProt Q08999)	1.04 ± 0.013	0.997 ± 0.019	1.05 ± 0.019	1.04 ± 0.037	1.03 ± 0.12	1.03 ± 0.062	1.02 ± 0.09	1.03 ± 0.14
SP4 (UniProt Q02446)	0.964 ± 0.054	0.987 ± 0.09	0.961 ± 0.061	0.99 ± 0.042	0.944 ± 0.026	1.03 ± 0.046	1.02 ± 0.13	1.03 ± 0.044
EIF3A (UniProt Q14152)	1.05 ± 0.031	1.08 ± 0.018	1.09 ± 0.062	1.18 ± 0.12	1.38 ± 0.23	1.53 ± 0.28	1.74 ± 0.34	1.94 ± 0.38
SSBP1 (UniProt Q04837)	0.942 ± 0.04	1 ± 0.048	0.918 ± 0.045	0.904 ± 0.016	0.856 ± 0.029	0.891 ± 0.022	0.867 ± 0.044	0.862 ± 0.032
SNW1 (UniProt Q13573)	0.96 ± 0.049	0.94 ± 0.064	0.97 ± 0.028	0.94 ± 0.071	0.942 ± 0.063	0.959 ± 0.041	1.01 ± 0.046	1.03 ± 0.051
UniProt Q0PNE2 and related entries	1.05 ± 0.015	1.14 ± 0.29	1.02 ± 0.21	1.08 ± 0.1	1.2 ± 0.17	1.08 ± 0.28	1.06 ± 0.11	1.03 ± 0.018
MDC1 (UniProt Q14676)	1.1 ± 0.024	1.14 ± 0.042	1.23 ± 0.053	1.41 ± 0.11	1.66 ± 0.17	1.77 ± 0.21	1.86 ± 0.29	1.92 ± 0.36
GNL2 (UniProt Q13823)	1.06 ± 0.011	1.07 ± 0.043	1.07 ± 0.011	1.12 ± 0.047	1.16 ± 0.027	1.19 ± 0.08	1.23 ± 0.1	1.28 ± 0.17
UniProt Q13330-3	1.03 ± 0.011	1.08 ± 0.049	1.06 ± 0.045	1.12 ± 0.082	1.11 ± 0.12	1.16 ± 0.16	1.17 ± 0.15	1.14 ± 0.14
HDAC1 (UniProt Q13547)	0.939 ± 0.086	1.03 ± 0.1	0.981 ± 0.078	0.987 ± 0.12	0.978 ± 0.14	1.07 ± 0.17	1.04 ± 0.16	1.01 ± 0.1
UniProt Q06124 and related entries	0.969 ± 0.037	0.981 ± 0.031	0.929 ± 0.05	0.916 ± 0.067	0.886 ± 0.047	0.893 ± 0.063	0.876 ± 0.064	0.877 ± 0.07
WRN (UniProt Q14191)	1.04 ± 0.071	1.04 ± 0.08	1.08 ± 0.1	1.1 ± 0.063	1.08 ± 0.079	1.09 ± 0.056	1.1 ± 0.084	1.06 ± 0.044
PPP1R8 (UniProt Q12972)	0.979 ± 0.062	0.969 ± 0.074	0.945 ± 0.098	0.902 ± 0.063	0.929 ± 0.11	0.921 ± 0.12	0.929 ± 0.093	0.921 ± 0.075
FADD (UniProt Q13158)	0.915 ± 0.014	0.86 ± 0.062	0.951 ± 0.057	0.945 ± 0.079	0.874 ± 0.063	0.893 ± 0.09	0.856 ± 0.15	0.858 ± 0.1
UniProt Q14005 and related entries	0.979 ± 0.016	0.946 ± 0.031	0.997 ± 0.049	0.93 ± 0.057	0.943 ± 0.1	0.931 ± 0.083	0.958 ± 0.034	0.95 ± 0.045
UniProt Q04637-4|Q04637-5|Q04637-9|E7EUU4 and related entries	1 ± 0.051	1.04 ± 0.054	1.06 ± 0.048	1.05 ± 0.058	1.1 ± 0.054	1.1 ± 0.05	1.16 ± 0.073	1.16 ± 0.084
UniProt Q13409 and related entries	0.962 ± 0.0076	1.07 ± 0.046	1.04 ± 0.061	1.08 ± 0.059	1.12 ± 0.15	1.11 ± 0.087	1.13 ± 0.14	1.16 ± 0.12
CUL4A (UniProt Q13619)	1.07 ± 0.041	1.09 ± 0.077	1.02 ± 0.045	1.03 ± 0.11	0.989 ± 0.09	0.987 ± 0.076	0.987 ± 0.061	0.934 ± 0.042
DGKZ (UniProt Q13574)	1.01 ± 0.05	1.08 ± 0.06	1.03 ± 0.027	1.07 ± 0.086	0.959 ± 0.065	0.97 ± 0.091	0.983 ± 0.071	0.941 ± 0.12
UniProt Q13057 and related entries	0.998 ± 0.055	1.01 ± 0.046	1.02 ± 0.033	1.026 ± 0.01	0.927 ± 0.035	0.953 ± 0.053	0.893 ± 0.049	0.958 ± 0.037
UniProt Q01970 and related entries	1.04 ± 0.011	1.05 ± 0.035	1.01 ± 0.066	1.03 ± 0.031	1.02 ± 0.026	0.997 ± 0.035	0.981 ± 0.052	0.981 ± 0.043
RING1 (UniProt Q06587)	0.932 ± 0.044	0.987 ± 0.035	0.964 ± 0.053	1 ± 0.046	1.05 ± 0.056	1.08 ± 0.054	1.07 ± 0.047	1.1 ± 0.034
UniProt Q01105-2	0.861 ± 0.073	0.834 ± 0.041	0.823 ± 0.18	0.988 ± 0.23	0.829 ± 0.19	0.958 ± 0.26	0.782 ± 0.13	1.03 ± 0.25
UniProt Q09028 and related entries	0.92 ± 0.12	0.959 ± 0.086	0.926 ± 0.11	0.956 ± 0.12	0.973 ± 0.11	0.99 ± 0.11	0.98 ± 0.16	0.973 ± 0.14
CSTF1 (UniProt Q05048)	1.06 ± 0.038	1.07 ± 0.094	0.969 ± 0.057	1.04 ± 0.12	1.04 ± 0.12	1.09 ± 0.14	1.03 ± 0.075	0.986 ± 0.017
KRR1 (UniProt Q13601)	1.06 ± 0.035	1.07 ± 0.02	1.08 ± 0.045	1.13 ± 0.044	1.16 ± 0.056	1.14 ± 0.086	1.17 ± 0.05	1.18 ± 0.065
EIF4EBP2 (UniProt Q13542)	0.887 ± 0.05	0.866 ± 0.031	0.9006 ± 0.0047	0.822 ± 0.043	0.867 ± 0.11	0.896 ± 0.096	0.942 ± 0.11	0.866 ± 0.088
UniProt Q13627 and related entries	1.09 ± 0.028	1.16 ± 0.1	1.08 ± 0.037	1.11 ± 0.058	1.14 ± 0.076	1.16 ± 0.086	1.15 ± 0.078	1.14 ± 0.053
G3BP1 (UniProt Q13283)	1.01 ± 0.069	1.01 ± 0.071	1.04 ± 0.071	1.06 ± 0.095	1.09 ± 0.075	1.09 ± 0.075	1.14 ± 0.088	1.16 ± 0.11

Random excerpt: 2 entries already listed.
Target	NP40-soluble protein abundance (concentration: 0.1mM)	NP40-soluble protein abundance (concentration: 0.5mM)	NP40-soluble protein abundance (concentration: 1mM)	NP40-soluble protein abundance (concentration: 2mM)	NP40-soluble protein abundance (concentration: 4mM)	NP40-soluble protein abundance (concentration: 6mM)	NP40-soluble protein abundance (concentration: 8mM)	NP40-soluble protein abundance (concentration: 10mM)
MCM6 (UniProt Q14566)	1.05 ± 0.1	1.08 ± 0.15	0.982 ± 0.11	1.02 ± 0.17	0.99 ± 0.14	1.01 ± 0.16	0.944 ± 0.081	0.921 ± 0.11
FADD (UniProt Q13158)	0.915 ± 0.014	0.86 ± 0.062	0.951 ± 0.057	0.945 ± 0.079	0.874 ± 0.063	0.893 ± 0.09	0.856 ± 0.15	0.858 ± 0.1
